Data published in the supplement of paper PMC12823440, “Inhibitors supercharge kinase turnover through native proteolytic circuits” (Nature, 2025).
Where a name gives a salt, the structure may show the parent alone. This is one part of the list. The calls rarely recur for the same compound in another form.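 Kinases, fused to nanoluciferase, were expressed in K562 cells; luminescence was measured every 4 h from 2 to 18 h as percent of control (DMSO = 100%, positive control = 0%). A time point is decreased if signal falls significantly (2 sigma). Hits were called by the authors by a rule that is not shown; the count of time points alone does not decide it.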

The chains behind the UniProt entries cited, without tags or fusion partners. Where a name states a change or a piece, a line headed by the entry shows the natural chain unless it says otherwise.
UniProt Q05397, whole entry, looked up: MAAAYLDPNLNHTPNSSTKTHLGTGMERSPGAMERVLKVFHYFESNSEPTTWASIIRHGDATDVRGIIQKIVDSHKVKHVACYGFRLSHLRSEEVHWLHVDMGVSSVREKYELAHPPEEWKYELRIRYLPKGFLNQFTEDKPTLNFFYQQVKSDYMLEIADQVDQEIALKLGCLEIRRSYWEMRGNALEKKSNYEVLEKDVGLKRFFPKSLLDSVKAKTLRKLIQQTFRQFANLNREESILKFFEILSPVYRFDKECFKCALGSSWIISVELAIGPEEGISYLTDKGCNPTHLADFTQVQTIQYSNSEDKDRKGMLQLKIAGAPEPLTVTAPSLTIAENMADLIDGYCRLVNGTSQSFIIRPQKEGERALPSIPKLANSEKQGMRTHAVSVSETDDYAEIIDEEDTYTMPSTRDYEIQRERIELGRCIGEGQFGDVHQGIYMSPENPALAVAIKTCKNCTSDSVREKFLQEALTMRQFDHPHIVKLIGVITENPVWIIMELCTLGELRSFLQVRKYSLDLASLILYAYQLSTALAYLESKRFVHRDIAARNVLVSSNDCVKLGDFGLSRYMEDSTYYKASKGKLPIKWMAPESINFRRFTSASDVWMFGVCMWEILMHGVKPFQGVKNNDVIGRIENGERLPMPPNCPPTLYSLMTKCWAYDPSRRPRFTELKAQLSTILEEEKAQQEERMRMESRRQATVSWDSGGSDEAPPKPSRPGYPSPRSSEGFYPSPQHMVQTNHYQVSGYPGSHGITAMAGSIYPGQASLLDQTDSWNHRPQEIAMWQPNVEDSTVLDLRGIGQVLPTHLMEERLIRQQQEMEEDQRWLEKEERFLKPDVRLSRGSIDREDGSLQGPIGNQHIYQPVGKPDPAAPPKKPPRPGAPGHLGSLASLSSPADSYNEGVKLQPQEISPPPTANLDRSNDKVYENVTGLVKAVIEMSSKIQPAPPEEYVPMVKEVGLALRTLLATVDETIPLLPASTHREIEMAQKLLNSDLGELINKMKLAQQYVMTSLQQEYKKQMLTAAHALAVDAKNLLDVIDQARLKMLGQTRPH
UniProt Q14289, whole entry, looked up: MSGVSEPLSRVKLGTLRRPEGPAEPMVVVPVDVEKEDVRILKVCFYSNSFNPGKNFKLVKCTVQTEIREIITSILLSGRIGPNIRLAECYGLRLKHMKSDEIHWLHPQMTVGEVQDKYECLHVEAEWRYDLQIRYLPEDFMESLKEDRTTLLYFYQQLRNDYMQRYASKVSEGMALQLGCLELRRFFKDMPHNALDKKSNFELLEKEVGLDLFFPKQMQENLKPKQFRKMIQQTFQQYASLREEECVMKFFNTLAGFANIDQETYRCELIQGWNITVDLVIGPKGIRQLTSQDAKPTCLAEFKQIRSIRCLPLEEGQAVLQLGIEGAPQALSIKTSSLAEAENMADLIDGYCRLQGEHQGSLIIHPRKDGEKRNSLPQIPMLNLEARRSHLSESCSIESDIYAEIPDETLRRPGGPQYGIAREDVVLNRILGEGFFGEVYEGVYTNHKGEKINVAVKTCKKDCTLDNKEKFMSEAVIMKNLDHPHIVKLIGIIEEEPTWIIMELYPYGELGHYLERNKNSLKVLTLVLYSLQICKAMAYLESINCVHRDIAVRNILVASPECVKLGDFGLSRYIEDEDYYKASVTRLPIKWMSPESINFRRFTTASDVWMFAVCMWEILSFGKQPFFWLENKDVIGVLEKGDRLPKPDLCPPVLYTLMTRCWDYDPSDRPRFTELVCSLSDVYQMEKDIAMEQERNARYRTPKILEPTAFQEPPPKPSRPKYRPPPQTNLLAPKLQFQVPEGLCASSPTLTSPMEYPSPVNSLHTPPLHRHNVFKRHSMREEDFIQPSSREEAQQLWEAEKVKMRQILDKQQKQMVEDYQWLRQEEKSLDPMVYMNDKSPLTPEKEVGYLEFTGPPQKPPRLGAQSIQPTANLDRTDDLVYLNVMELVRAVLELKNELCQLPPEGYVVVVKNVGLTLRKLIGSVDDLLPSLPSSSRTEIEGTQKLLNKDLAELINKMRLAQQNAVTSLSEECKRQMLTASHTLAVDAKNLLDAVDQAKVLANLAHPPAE
UniProt P07949, whole entry, looked up: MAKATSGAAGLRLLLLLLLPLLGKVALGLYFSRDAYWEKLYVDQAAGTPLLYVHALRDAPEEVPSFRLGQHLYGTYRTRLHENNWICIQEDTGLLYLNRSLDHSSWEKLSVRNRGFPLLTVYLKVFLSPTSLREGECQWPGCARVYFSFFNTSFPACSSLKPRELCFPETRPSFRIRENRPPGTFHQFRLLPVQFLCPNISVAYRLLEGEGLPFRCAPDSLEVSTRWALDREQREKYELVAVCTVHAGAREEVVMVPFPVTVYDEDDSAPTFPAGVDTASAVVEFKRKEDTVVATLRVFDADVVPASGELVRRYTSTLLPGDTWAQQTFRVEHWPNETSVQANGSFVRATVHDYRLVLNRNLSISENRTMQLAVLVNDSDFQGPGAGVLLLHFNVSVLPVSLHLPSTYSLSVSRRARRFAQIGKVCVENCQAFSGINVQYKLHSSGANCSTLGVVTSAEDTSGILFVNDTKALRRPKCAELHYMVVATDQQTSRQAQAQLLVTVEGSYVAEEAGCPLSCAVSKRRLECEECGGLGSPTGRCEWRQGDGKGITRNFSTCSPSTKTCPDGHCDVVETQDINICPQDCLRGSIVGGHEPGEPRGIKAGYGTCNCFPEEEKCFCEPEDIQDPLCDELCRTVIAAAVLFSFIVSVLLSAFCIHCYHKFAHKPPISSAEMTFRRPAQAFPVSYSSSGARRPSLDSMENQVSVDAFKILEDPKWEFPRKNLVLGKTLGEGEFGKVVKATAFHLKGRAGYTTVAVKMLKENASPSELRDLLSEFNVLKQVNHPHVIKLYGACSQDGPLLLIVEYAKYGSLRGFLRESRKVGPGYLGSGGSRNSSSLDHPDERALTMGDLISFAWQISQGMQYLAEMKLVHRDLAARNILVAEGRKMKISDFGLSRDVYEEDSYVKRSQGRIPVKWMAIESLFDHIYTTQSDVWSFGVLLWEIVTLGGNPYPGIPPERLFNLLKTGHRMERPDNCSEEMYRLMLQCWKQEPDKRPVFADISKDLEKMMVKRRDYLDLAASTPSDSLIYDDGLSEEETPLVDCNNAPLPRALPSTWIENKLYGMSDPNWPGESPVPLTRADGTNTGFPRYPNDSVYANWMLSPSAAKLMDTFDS
UniProt P07949, whole entry M918T, looked up: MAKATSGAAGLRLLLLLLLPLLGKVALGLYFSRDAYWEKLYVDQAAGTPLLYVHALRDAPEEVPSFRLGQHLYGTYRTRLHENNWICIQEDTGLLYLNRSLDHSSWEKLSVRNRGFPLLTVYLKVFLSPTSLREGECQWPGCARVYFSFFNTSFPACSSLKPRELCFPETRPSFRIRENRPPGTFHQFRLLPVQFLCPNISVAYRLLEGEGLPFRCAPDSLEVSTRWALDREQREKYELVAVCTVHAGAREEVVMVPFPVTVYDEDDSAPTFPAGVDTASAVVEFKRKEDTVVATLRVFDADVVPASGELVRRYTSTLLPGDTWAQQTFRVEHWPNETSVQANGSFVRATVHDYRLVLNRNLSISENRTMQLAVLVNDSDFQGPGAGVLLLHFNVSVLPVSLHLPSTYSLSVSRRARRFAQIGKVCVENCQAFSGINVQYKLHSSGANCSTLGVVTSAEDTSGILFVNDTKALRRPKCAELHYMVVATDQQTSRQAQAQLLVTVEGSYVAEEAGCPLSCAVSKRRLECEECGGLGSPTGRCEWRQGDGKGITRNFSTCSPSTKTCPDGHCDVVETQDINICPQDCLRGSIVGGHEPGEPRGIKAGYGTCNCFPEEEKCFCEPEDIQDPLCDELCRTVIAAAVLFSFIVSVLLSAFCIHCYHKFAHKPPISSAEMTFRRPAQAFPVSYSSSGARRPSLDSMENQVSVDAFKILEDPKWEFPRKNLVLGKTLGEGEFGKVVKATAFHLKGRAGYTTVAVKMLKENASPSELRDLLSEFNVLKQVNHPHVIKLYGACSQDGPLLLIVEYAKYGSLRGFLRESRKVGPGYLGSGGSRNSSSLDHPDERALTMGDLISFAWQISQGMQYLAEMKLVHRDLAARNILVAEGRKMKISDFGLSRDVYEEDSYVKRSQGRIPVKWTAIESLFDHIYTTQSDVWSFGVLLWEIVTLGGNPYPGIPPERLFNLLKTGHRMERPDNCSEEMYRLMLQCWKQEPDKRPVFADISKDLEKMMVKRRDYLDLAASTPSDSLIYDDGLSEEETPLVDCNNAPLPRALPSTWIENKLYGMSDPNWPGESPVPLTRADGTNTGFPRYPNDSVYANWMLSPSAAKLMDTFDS
UniProt Q9BRS2: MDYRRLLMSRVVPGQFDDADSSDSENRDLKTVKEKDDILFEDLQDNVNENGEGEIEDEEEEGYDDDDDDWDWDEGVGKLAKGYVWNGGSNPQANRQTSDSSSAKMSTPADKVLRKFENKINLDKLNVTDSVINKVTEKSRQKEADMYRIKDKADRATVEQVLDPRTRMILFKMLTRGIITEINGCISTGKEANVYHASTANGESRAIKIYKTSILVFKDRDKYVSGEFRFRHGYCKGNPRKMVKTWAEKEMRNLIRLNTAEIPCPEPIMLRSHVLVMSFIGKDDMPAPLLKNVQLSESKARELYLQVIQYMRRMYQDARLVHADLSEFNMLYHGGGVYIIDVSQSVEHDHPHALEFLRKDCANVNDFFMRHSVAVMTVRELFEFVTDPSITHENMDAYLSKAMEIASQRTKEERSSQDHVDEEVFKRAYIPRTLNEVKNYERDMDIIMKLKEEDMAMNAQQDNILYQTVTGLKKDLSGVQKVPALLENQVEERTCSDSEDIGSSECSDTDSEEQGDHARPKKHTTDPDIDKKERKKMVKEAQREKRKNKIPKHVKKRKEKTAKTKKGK
UniProt Q13546: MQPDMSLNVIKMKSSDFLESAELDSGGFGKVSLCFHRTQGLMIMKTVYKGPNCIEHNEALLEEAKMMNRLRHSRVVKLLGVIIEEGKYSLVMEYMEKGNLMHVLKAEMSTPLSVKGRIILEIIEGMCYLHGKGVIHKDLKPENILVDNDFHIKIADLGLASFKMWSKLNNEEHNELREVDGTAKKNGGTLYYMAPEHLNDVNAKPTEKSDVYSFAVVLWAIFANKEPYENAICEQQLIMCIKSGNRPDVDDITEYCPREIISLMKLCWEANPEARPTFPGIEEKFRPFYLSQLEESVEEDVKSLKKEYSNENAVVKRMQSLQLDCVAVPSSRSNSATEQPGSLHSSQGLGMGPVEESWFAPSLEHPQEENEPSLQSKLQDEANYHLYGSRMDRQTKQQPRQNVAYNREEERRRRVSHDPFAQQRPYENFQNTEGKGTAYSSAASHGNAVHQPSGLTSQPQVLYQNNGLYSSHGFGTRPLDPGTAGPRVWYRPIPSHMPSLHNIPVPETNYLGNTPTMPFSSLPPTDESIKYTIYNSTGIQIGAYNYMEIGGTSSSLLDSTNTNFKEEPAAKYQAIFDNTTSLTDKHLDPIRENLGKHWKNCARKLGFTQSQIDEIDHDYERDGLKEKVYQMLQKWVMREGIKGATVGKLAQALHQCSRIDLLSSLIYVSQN

How the values were obtained:
Assay in all cases: number of time points (of 5) at which kinase-Nluc abundance scored as decreased, DMSO-normalised (count); higher = more persistent destabilization
Details in all cases: K562; 2-18 h
[1] = target: PRKCA (UniProt P17252)
[2] = target: PTK2 (UniProt Q05397)
[3] = target: PTK2B (UniProt Q14289)
[4] = target: RAF1 (UniProt P04049)
[5] = target: RAF1_S257L (clone: RAF1_mut) (UniProt P04049)
[6] = target: RET (UniProt P07949)
[7] = target: RET_M918T (clone: RET_mut) (UniProt P07949)
[8] = target: RIOK1 (UniProt Q9BRS2)
[9] = target: RIPK1 (UniProt Q13546)
[10] = target: RIPK2 (UniProt O43353)

Measured: number of time points

Nc1cc(C(F)(F)F)c(-c2cc(N3CCOCC3)nc(N3CCOCC3)n2)cn1 [Buparlisib (Hydrochloride)] (2.5 µM)
2: [4]
0: all other assays above

C=C1C(=O)O[C@H]2C[C@H](C)C(/C=C/C(C)=O)=CC[C@H]12 [Xanthatin] (2.5 µM)
0: all assays above

NC(=O)c1ccc2[nH]ccc2c1 (10 µM)
0: all assays above

Filtered by structure: the entries above with nitrogen in an aromatic ring (2)
Nc1cc(C(F)(F)F)c(-c2cc(N3CCOCC3)nc(N3CCOCC3)n2)cn1 [Buparlisib (Hydrochloride)] (2.5 µM)
2: [4]
0: all other assays above

NC(=O)c1ccc2[nH]ccc2c1 (10 µM)
0: all assays above

Next part:

COc1cccc(OC)c1C(=O)OCc1cc(O)ccc1O[C@@H]1O[C@H](CO)[C@@H](O)[C@H](O)[C@H]1O [Curculigoside] (10 µM)
0: all assays above

CN(C)C(=O)Cn1cc(-c2ccc(-c3cncc4ccccc34)cc2)cn1 (10 µM)
0: all assays above

CC(C)(C)c1cc(O)ccc1O (10 µM)
0: all assays above

Cc1cccc(Oc2cnc(=O)[nH]c2)c1 [Tolimidone] (10 µM)
0: all assays above

CC(C)(O)CNc1ncc(-c2ccnc(Nc3ccnc(Cl)c3)n2)c(CC2CC2)n1 (2.5 µM)
0: all assays above

O=C1NC(=O)/C(=C/c2ccc3nccnc3c2)S1 (10 µM)
0: all assays above

Cc1ccccc1-n1c([C@H](C)Nc2nc(N)nc3nc[nH]c23)nc2cccc(C)c2c1=O [CAL-130 (Hydrochloride)] (10 µM)
0: all assays above

CCS(=O)(=O)Nc1ccc2[nH]c(O)c(C(=Nc3ccc(CN4CCCCC4)cc3)c3ccccc3)c2c1 [Hesperadin] (2.5 µM)
0: [1] | [3]
4: [5]
2: [2] | [6] | [8]
3: all other assays above

O=S(=O)(NCCCN1c2ccccc2CCc2ccc(Cl)cc21)c1ccc(OC(F)(F)F)cc1 (2.5 µM)
0: all assays above

O=Nc1c(-c2c(O)[nH]c3ccc(I)cc23)[nH]c2ccccc12 [5-Iodo-indirubin-3'-monoxime] (10 µM)
0: all assays above

Cc1ccc(C(=O)Nc2ccc(Oc3cc4cnn(C)c4cc3-c3cn[nH]c3)c(F)c2)c(=O)n1-c1ccc(F)cc1 [Merestinib dihydrochloride] (2.5 µM)
0: all assays above

Cc1cc(CN2CCN(c3c(Br)cnc4nc(-c5ccc(N6CCN(C)CC6)cc5)[nH]c34)CC2)no1 (2.5 µM)
1: [1]
0: all other assays above

Cc1ccc(OCCSc2ncccn2)c(Br)c1 [ZLN024 (hydrochloride)] (10 µM)
0: all assays above

O=C(NCCN1CCCC1)c1cc(-c2ccc(CN3CCOCC3)cc2)nc2ccc(F)cc12 (10 µM)
0: all assays above

Nc1ncnc2c1c(-c1ccc(Oc3ccccc3)cc1)nn2C1CCCC1 (2.5 µM)
0: all assays above

CCN1CCC(n2cc(CNc3cc(Cl)c4ncc(C#N)c(Nc5ccc(F)c(Cl)c5)c4c3)nn2)CC1 [Cot inhibitor-2] (2.5 µM)
0: all assays above

COc1cc2ncnc(Nc3ccc(Cl)cc3F)c2cc1OC (10 µM)
0: all assays above

CN1C(=O)N[C@H](Cc2c[nH]c3c(Cl)cccc23)C1=O [Necrostatin 2] (10 µM)
0: all assays above

Cc1[nH]c(/C=C2\C(=O)Nc3ccccc32)c(C)c1CCC(=O)O [(Z)-Orantinib] (10 µM)
0: all assays above

COc1ccccc1-c1cc(Nc2cccc(CS(N)(=O)=O)c2)ncn1 (10 µM)
2: [2] | [5] | [9]
0: all other assays above

Cc1nc(-c2cn3c(n2)-c2ccc(-c4cnn(C(C)(C)C(N)=O)c4)cc2OCC3)n(C(C)C)n1 [Taselisib] (10 µM)
0: all assays above

Nc1nc(F)nc2c1ncn2[C@@H]1O[C@H](CO)[C@@H](O)[C@@H]1O [Fludarabine] (10 µM)
0: all assays above

COc1ccc(OC)c(C2C(C#N)=C(N)Oc3n[nH]c(-c4ccc5ccccc5c4)c32)c1 (stereo not given) (10 µM)
0: all assays above

FC(F)(F)c1ccc(CNc2ccc(Cc3c[nH]c4ncccc34)cn2)cc1 (10 µM)
0: all assays above

CCOC(=O)N1CCN(C(=O)[C@H](Cc2cccc(C(=N)N)c2)NS(=O)(=O)c2c(C(C)C)cc(C(C)C)cc2C(C)C)CC1 (10 µM)
0: all assays above

C[C@@H](c1ccc(F)cc1)n1nnc2cnc3ccc(-c4ccc5ocnc5c4)cc3c21 (10 µM)
0: all assays above

CCS(=O)(=O)c1ncc(Cl)c(C(=O)N(Cc2ccc(Cl)cc2)Cc2ccco2)n1 (2.5 µM)
2: [8]
0: all other assays above

CC#CC(=O)N1CC[C@@H](n2c(=O)n(-c3ccc(Oc4ccccc4)cc3)c3c(N)ncnc32)C1 [Tirabrutinib (hydrochloride)] (10 µM)
0: all assays above

CCN1CCN(Cc2ccc(-c3cc4c(N[C@H](C)c5ccccc5)ncnc4[nH]3)cc2)CC1 (2.5 µM)
2: [2] | [4] | [6]
4: [5]
1: [10]
3: [8] | [9]
0: all other assays above

O=C([O-])c1cc2ccccc2c(Cc2c(O)c(C(=O)[O-])cc3ccccc23)c1O.[Na+].[Na+] [Pamoic acid (disodium)] (10 µM)
0: all assays above

COc1cc2c(N3CCN(C(=O)Nc4ccc(OC(C)C)cc4)CC3)ncnc2cc1OCCCN1CCCCC1 [Tandutinib] (10 µM)
0: all assays above

C=CC(=O)Nc1cc(C)ccc1Nc1nc(Nc2cc(OC)ncc2C)ncc1C(F)(F)F (10 µM)
0: all assays above

CNc1nc(Nc2ccc(C(=O)N3CCOCC3)cc2OC)nc2[nH]cc(Cl)c12 (2.5 µM)
0: all assays above

CC[C@@H](Oc1nc(Oc2cc(C)cc(-c3cccc(CN)c3)c2)c(F)cc1F)C(=O)O (10 µM)
0: all assays above

CC1=C(C(=O)O)N2C(=O)[C@@H](NC(=O)[C@H](N)C3=CCC=CC3)[C@H]2SC1 [Cephradine] (10 µM)
0: all assays above
